Ends that are not written are not given here.
Assay: general procedure: solution-phase peptide synthesis; DCC/HOBt; OTcp or OOBt active esters with HOBt; azide coupling (tert.-butyl nitr)
Details: 2 HCl or diacetate

For EHWSYG-OH, the step yield (coupling step, calculated on H-Trp-Ser-Tyr(Etoc)-Gly-OEt) was “ca. 10%”.

With “Glu-His-Trp-Ser-Tyr-Gly-Cys(Bu^t)-Arg-Pro-NH-C2 H5 -diacetate” the step yield (coupling step, corrected for peptide content 78.4%) was 30% yield.

In the case of “Glu-His-Trp-Ser-Tyr-Gly-Lys(Boc)-Arg-Pro-Gly-NH2”, the step yield (coupling step) is reported as 23%.

For “H-D-Ala-Lys(Boc)-Arg-Pro-NH-C2 H5 . 2 HCl”, the difficulty met (coupling step) was “Since the substance was strongly contaminated” and the step yield (coupling step, calculated on the H-Lys(Boc)-Arg-Pro-NH-C2 H5 . 2 HCl) was 45%.

In the case of “H-D-Leu-Cys(Bu^t)-Arg-Pro-NH-C2 H5 -diacetate”, the difficulty met (coupling step) is reported as “The compound was strongly contaminated” and the step yield (coupling step, run 1) is reported as 40%.

With “H-D-Leu-Ser(Bu^t)-Arg-Pro-cyclopropylamide . 2 HCl” the step yield (coupling step, calculated on Z-D-Leu-OTcp) was 76%.

For H-Lys(Boc)-Arg-Pro-Gly-NH2 . 2HCl, the difficulty met (coupling step) was “the substance was not homogeneous with regard to thin layer chromatography”.

In the case of “H-Ser-Tyr-D-Ala-Cys(Bu^t)-Arg-Pro-NH-C2 H5 -diacetate”, the step yield (coupling step, calculated on Z-Ser-Tyr(Bzl)--OH) is reported as 58%.

In the case of “H-Ser-Tyr-D-Ala-Lys(Boc)-Arg-Pro-NH-C2 H5 . 2 HCl”, the difficulty met (coupling step) is reported as “not homogeneous with regard to thin layer chromatography (contaminated by three by-products)” and the step yield (coupling step, calculated on Z-Ser-Tyr(Bzl)-OOBt) is reported as 76%.

H-Trp-Ser-Tyr(Etoc)-Gly-OEt.HCl gave a step yield (late stage modification step) of 97%.

Substance “Z-Ser-Tyr(Bzl)-Gly-Cys(Bu^t)-Arg-Pro-NH-C2 H5” has a step yield (coupling step) of 91%.

Z-Trp-Ser-Tyr(Etoc)-Gly-OEt showed a step yield (coupling step) of 76%.

Reference: patent US4003884 (dated 1977)
